Laboratory results: PubChem BioAssay AID504793 (Drosophila RNAi Screening Center, 2011)
Purpose: 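Whole-genome screen for parts of the DNA damage checkpoint at G2/M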 (primary screen). Cell system: Drosophila S2R+ cells. Reagents: long dsRNA against Drosophila genes, about 0.25 µg dsRNA per well. Timing: 4 days of dsRNA, then 4 hours of drug before read-out. Conditions: doxorubicin 0.5 µM for 4 hours to cause double-strand breaks, in cells also given a low, harmless dose of dsRNA against nbs to sensitise the assay. Measurement: 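Mitotic index as the number of phospho-histone H3-positive cells in each well following doxorubicin, given as raw counts without normalisation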. Reading the numbers: mitotic cells: higher = more cells in mitosis, weaker G2 arrest. Hit rule: 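Genes are called active only when high mitotic counts were reproduced with independent dsRNAs and mitosis was checked for delay without damage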. Meaning of the calls: active = confirmed in follow-up tests; inactive = not confirmed.
The deposit covers about 23,000 reagents; this is an unselected part of those with a known target gene and a result. In the full data, 62 (0.27%) were called active. 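Calls come from follow-up tests whose scores are not deposited, so confirmed genes may have low counts here; counts are not normalised per plate.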 Raw values vary from plate to plate and are shown uncorrected.

Osbp (Oxysterol binding protein) [DRSC16779] → mitotic cells, replicate 1 = 7; activity call = inactive
CG32719 [DRSC17525] → mitotic cells, replicate 1 = 7; activity call = inactive
CG32719 [DRSC26765] → mitotic cells, replicate 1 = 6; activity call = inactive
Zaf1 (ZAD and Architectural Function 1) [DRSC16121] → mitotic cells, replicate 1 = 1; activity call = inactive
m (miniature) [DRSC20181] → mitotic cells, replicate 1 = 17; activity call = inactive
m (miniature) [DRSC29636] → activity call = inactive
CG30324 [DRSC22655] → mitotic cells, replicate 1 = 5; activity call = inactive
CG30324 [DRSC26815] → mitotic cells, replicate 1 = 6; activity call = inactive
CG14234 [DRSC19317] → mitotic cells, replicate 1 = 27; activity call = inactive
CG14234 [DRSC19589] → mitotic cells, replicate 1 = 4; activity call = inactive
CG13062 [DRSC09945] → mitotic cells, replicate 1 = 7; activity call = inactive
CG13062 [DRSC28840] → mitotic cells, replicate 1 = 2; activity call = inactive
CG15042 [DRSC19618] → mitotic cells, replicate 1 = 11; activity call = inactive
Art8 (Arginine methyltransferase 8) [DRSC02530] → mitotic cells, replicate 1 = 5; activity call = inactive
CG14565 [DRSC11726] → mitotic cells, replicate 1 = 4; activity call = inactive
CG14565 [DRSC26063] → mitotic cells, replicate 1 = 3; activity call = inactive
RpL17 (Ribosomal protein L17) [DRSC18293] → mitotic cells, replicate 1 = 6; activity call = inactive
RpL17 (Ribosomal protein L17) [DRSC29971] → mitotic cells, replicate 1 = 7; activity call = inactive
CG6337 [DRSC06977] → mitotic cells, replicate 1 = 5; activity call = inactive
CG6337 [DRSC21870] → mitotic cells, replicate 1 = 11; activity call = inactive
dpr16 (defective proboscis extension response 16) [DRSC12217] → mitotic cells, replicate 1 = 10; activity call = inactive
dpr16 (defective proboscis extension response 16) [DRSC12249] → mitotic cells, replicate 1 = 9; activity call = inactive
CG17300 [DRSC10260] → mitotic cells, replicate 1 = 5; activity call = inactive
CG17300 [DRSC28904] → mitotic cells, replicate 1 = 5; activity call = inactive
CG17919 [DRSC12571] → mitotic cells, replicate 1 = 4; activity call = inactive
CG17919 [DRSC27860] → mitotic cells, replicate 1 = 6; activity call = inactive
CG11263 [DRSC09832] → mitotic cells, replicate 1 = 8; activity call = inactive
CG14743 [DRSC06479] → mitotic cells, replicate 1 = 2; activity call = inactive
CG7368 [DRSC10826] → mitotic cells, replicate 1 = 9; activity call = inactive
CG7368 [DRSC22821] → mitotic cells, replicate 1 = 7; activity call = inactive
CG7368 [DRSC29098] → mitotic cells, replicate 1 = 2; activity call = inactive
CG12692 [DRSC17881] → mitotic cells, replicate 1 = 14; activity call = inactive
Tango4 (Transport and Golgi organization 4) [DRSC19786] → mitotic cells, replicate 1 = 5; activity call = inactive
Tango4 (Transport and Golgi organization 4) [DRSC23475] → mitotic cells, replicate 1 = 3; activity call = inactive

2 consecutive records from above, for reference:
m (miniature) [DRSC20181] → mitotic cells, replicate 1 = 17; activity call = inactive
m (miniature) [DRSC29636] → activity call = inactive
